In all, about 33,000 sequences were measured (“E-score (-0.5 to 0.5)”: median about -0.016, highest 2% from about 0.3 on). This is one part of the list.
target: T1, Yer184c (UniProt P39961); assay: PBM E-score (8-mer binding enrichment) (E-score (-0.5 to 0.5)); higher = stronger / more preferred TF binding; details: protein concentration: 100 nM; construct: GST-full length
T1 sequence: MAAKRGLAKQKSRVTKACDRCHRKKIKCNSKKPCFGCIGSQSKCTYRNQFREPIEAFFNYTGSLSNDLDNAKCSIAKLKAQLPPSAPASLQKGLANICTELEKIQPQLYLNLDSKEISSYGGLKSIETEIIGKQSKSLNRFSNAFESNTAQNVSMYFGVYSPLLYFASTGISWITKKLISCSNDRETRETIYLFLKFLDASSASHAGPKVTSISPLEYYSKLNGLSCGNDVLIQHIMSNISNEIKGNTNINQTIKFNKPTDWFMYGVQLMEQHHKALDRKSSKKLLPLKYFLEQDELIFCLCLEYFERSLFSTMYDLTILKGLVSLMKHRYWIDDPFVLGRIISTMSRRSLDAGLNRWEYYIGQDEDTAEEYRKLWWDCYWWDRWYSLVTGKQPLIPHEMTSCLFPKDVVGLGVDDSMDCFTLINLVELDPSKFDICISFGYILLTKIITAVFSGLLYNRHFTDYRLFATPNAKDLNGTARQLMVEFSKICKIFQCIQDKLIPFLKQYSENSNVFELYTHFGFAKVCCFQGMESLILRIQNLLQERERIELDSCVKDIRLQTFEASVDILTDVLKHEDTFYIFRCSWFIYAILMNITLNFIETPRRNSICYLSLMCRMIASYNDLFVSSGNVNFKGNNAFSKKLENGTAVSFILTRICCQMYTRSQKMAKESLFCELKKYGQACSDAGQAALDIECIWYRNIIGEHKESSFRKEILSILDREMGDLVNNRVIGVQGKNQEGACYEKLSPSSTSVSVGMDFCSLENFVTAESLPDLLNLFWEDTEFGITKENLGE
Procedure, shortened: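 Masliner-normalised scans of fluorescent anti-GST signal were the basis for scoring. That signal came from GST-tagged yeast transcription factors applied at about 100-200 nM to double-stranded universal all-10-mer Agilent arrays on fresh or once-stripped slides. Each ungapped eight-base word, pooled with its reverse complement, received an E-score from the Universal PBM Analysis Suite.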

| Sequence | PBM E-score |
| --- | --- |
| ACATTGTG | -0.201 |
| ACGCGAAG | -0.039 |
| AAACACGG | 0.13 |
| AGAGGGGG | -0.432 |
| AAAGCTGG | -0.112 |
| AGAATTTG | 0.0863 |
| GTGTCAAC | -0.0844 |
| GTAGGAAA | -0.0963 |
| ATATATAC | 0.317 |
| AGCTCCCG | -0.00473 |
| CATTCAAA | 0.246 |
| GCTCCGTA | 0.205 |
| ATGCAACA | -0.111 |
| CACAGTCG | -0.078 |
| AACCAGGG | -0.242 |
| TATATCCA | 0.00153 |
| AATTGTCT | 0.0418 |
| TACCGATA | 0.213 |
| AGGGTTGG | -0.0955 |
| CAATTTTA | 0.148 |
| AACCCAGC | -0.121 |
| GCGGACAC | 0.154 |
| GCCTATAA | -0.157 |
| GCCTCAGA | -0.0395 |
| CGAACTCC | 0.223 |

| Sequence | PBM E-score |
| --- | --- |
| CAACCCCG | -0.209 |
| GAAGATGC | -0.209 |
| AATACAAA | 0.216 |
| ACGCGGTG | -0.0857 |
| CCGATATC | 0.207 |
| AAGGGCTG | -0.171 |
| CGCCAAAC | -0.0605 |
| GAACCTAA | 0.0783 |
| GGAGGGAA | -0.112 |
| CAGACAGG | -0.15 |
| GGCGATCA | -0.117 |
| CCTATACC | -0.213 |
| AGATTGGA | -0.0327 |
| CTCGCCCA | -0.128 |
| CATTGCAA | -0.0846 |
| TAAAGCAA | 0.067 |
| AATGCCGT | 0.304 |
| AGGACGAA | 0.189 |
| CATGAGCC | -0.184 |
| AATCACTA | 0.0701 |
| ATTGGGGA | -0.291 |
| CGCAGTAG | -0.13 |
| CTAGTGAC | -0.034 |
| AGCCTTCA | 0.0123 |
| TGCAGCCA | -0.181 |

| Sequence | PBM E-score |
| --- | --- |
| AATTGCCA | -0.0138 |
| CCATAGCG | -0.124 |
| ATTGTCCG | 0.345 |
| CGCATCGA | -0.0801 |
| AACACCTC | -0.197 |
| AGCCAGCT | -0.0655 |
| TATCACCA | -0.0574 |
| GGTACAAA | 0.054 |
| CTCGATGA | -0.0127 |
| CTAGAGGC | -0.223 |
| CCGTCTCG | 0.159 |
| GTGCCGGA | 0.305 |
| GCTTAACC | -0.0768 |
| AACCACTA | -0.127 |
| GGACGGGA | -0.0652 |
| GAGTAAGA | 0.151 |
| ATCACGGC | 0.197 |
| AGTGACGC | -0.0974 |
| AATATGAT | 0.197 |
| GTTCCTGA | -0.215 |
| CGCTTTTA | 0.205 |
| ACGATCGA | 0.118 |
| AGTGCAGC | 0.051 |
| CGCATAAC | -0.0147 |
| ATTACGTC | 0.0645 |

Part of the list above, set out differently:
Sequence	PBM E-score
AACCAGGG	-0.242
TATATCCA	0.00153

(continued)

| Sequence | PBM E-score |
| --- | --- |
| AACTTGCT | -0.0918 |
| TATTCCGA | 0.389 |
| ACCTGGAG | -0.13 |
| TACTGCAA | 0.0176 |
| CGAAACAC | 0.232 |
| GACTTCCC | -0.0878 |
| GCTCGACA | -0.177 |
| CAGGCCTC | -0.339 |
| CACGATTC | 0.0028 |
| AACAAGGC | -0.1 |
| ACACGTGG | -0.112 |
| AGATGCTA | -0.176 |
| AAATGCAT | 0.145 |
| ATGACAGG | -0.182 |
| GGCATAAC | 0.0601 |
| AACATGGG | -0.0331 |
| CTGTCGGA | 0.177 |
| ACAAGTCA | -0.147 |
| TACAGTGA | -0.0321 |
| ACCCTTGG | -0.329 |
| TCCAGCCA | -0.23 |
| AGCAAGGC | -0.145 |
| CCAATCGC | -0.072 |
| TGCAGGCA | -0.21 |
| CCGAGCCA | 0.219 |

| Sequence | PBM E-score |
| --- | --- |
| TCAGGAAA | 0.112 |
| ATATTGGA | 0.0393 |
| AAGTGATC | 0.105 |
| CTCGGTCA | 0.167 |
| GATTACGC | 0.0704 |
| ACCCGGGG | 0.0702 |
| TAGTGGGA | -0.112 |
| AGACAATA | 0.0776 |
| ACCGCTAA | 0.0952 |
| CATTATCA | 0.0221 |
| AGCGAAAG | -0.153 |
| AATTTAAT | 0.271 |
| GCGAGAGC | 0.0469 |
| GCAAATGA | 0.0246 |
| AATTTGCT | 0.0712 |
| CAAATGCA | -0.0434 |
| TAGTATGA | 0.129 |
| CGAAAGAG | 0.114 |
| GACCAACA | 0.206 |
| ATAGAAGA | 0.0239 |
| ACATAGGT | -0.138 |
| GCATCATA | 0.214 |
| TCATAGAA | 0.129 |
| GACGATAC | -0.0374 |
| GAAAGTAC | -0.0441 |

For convenience, part of the list above.

| Sequence | PBM E-score |
| --- | --- |
| AGTGACGC | -0.0974 |
| AATATGAT | 0.197 |
| GTTCCTGA | -0.215 |
| CGCTTTTA | 0.205 |
| ACGATCGA | 0.118 |

5 entries from above, with bars between the fields:
Sequence | PBM E-score
CATTATCA | 0.0221
GCGAGAGC | 0.0469
AATTTGCT | 0.0712
TCATAGAA | 0.129
GACGATAC | -0.0374

Going on with the list.

| Sequence | PBM E-score |
| --- | --- |
| AGAGCCCC | -0.316 |
| CCACATAC | -0.0895 |
| ACACTTGA | -0.247 |
| CCTACGCC | -0.297 |
| AGAGCGAG | -0.0354 |
| GTAGACGA | 0.0625 |
| ACACACCA | -0.218 |
| ATCACGCC | -0.00795 |
| GAGAACAC | -0.0879 |
| CGCCATAA | 0.13 |
| GAACCACA | 0.00592 |
| TCGAAGCA | 0.0213 |
| ATAAGTCC | 0.147 |
| ACCCAGAT | -0.0253 |
| GACGTGAC | -0.0956 |
| CGGACGTC | 0.189 |
| GGAGCGAA | 0.069 |
| ATGGCATC | -0.0291 |
| AGATTTCA | 0.0496 |
| GTATTTGA | 0.0371 |
| ATCTATTC | 0.0275 |
| TATTAAGA | 0.0986 |
| CCTGTTCC | -0.0466 |
| CGTCGCAC | -0.00563 |
| ACGGGATG | -0.0538 |

| Sequence | PBM E-score |
| --- | --- |
| CGGTACGC | 0.114 |
| GGGCAGTA | -0.144 |
| GGGTCACA | -0.191 |
| AACTGCTA | -0.141 |
| GAAAGCGA | 0.066 |
| AGCCTCTG | -0.37 |
| GATCTAGA | -0.0186 |
| ACATCCAT | -0.0271 |
| AACTAAGA | 0.084 |
| CCCAAAGA | 0.0166 |
| CAGGTGTC | -0.0925 |
| TACGGACA | 0.196 |
| AGAATGTC | -0.0589 |
| ATCTTGTA | 0.033 |
| TACACGCA | -0.224 |
| TAAGCCAA | 0.0287 |
| ACACAATA | 0.0432 |
| GACAGTGA | -0.0138 |
| CTTCGATC | 0.0337 |
| TGCACACA | -0.0766 |
| CATGGCCG | 0.0582 |
| CACAACGG | -0.0669 |
